These are yes or no findings as the source states them, for the method shown. In cells and extracts the contact can be indirect. These calls come from enrichment with a bait or labelling near it, and not all partners need be listed. Where a sequence is shown, tags or fusion partners need not be part of it.
Target: T1, GST-fused UL56 ectodomain (amino acids 1-215) (HSV-1) (UniProt P10240)
T1 sequence: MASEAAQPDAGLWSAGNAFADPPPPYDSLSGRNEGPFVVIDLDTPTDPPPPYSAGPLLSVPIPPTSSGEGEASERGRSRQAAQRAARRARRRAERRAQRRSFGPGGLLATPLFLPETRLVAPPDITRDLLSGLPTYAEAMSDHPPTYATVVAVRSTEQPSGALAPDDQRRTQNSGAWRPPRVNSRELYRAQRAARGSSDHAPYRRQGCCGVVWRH
Experiment: affinity purification with mass spectrometry; GST or GST-UL56 (1-215) expressed in 293T cells; lysis in 1% CHAPS in TBS plus proteinase inhibitors; glutathione beads, extensive washes; eluate on SDS-PAGE with Coomassie blue; bands identified by MS/MS

The chains behind the UniProt entries cited, without tags or fusion partners.
UniProt P46934: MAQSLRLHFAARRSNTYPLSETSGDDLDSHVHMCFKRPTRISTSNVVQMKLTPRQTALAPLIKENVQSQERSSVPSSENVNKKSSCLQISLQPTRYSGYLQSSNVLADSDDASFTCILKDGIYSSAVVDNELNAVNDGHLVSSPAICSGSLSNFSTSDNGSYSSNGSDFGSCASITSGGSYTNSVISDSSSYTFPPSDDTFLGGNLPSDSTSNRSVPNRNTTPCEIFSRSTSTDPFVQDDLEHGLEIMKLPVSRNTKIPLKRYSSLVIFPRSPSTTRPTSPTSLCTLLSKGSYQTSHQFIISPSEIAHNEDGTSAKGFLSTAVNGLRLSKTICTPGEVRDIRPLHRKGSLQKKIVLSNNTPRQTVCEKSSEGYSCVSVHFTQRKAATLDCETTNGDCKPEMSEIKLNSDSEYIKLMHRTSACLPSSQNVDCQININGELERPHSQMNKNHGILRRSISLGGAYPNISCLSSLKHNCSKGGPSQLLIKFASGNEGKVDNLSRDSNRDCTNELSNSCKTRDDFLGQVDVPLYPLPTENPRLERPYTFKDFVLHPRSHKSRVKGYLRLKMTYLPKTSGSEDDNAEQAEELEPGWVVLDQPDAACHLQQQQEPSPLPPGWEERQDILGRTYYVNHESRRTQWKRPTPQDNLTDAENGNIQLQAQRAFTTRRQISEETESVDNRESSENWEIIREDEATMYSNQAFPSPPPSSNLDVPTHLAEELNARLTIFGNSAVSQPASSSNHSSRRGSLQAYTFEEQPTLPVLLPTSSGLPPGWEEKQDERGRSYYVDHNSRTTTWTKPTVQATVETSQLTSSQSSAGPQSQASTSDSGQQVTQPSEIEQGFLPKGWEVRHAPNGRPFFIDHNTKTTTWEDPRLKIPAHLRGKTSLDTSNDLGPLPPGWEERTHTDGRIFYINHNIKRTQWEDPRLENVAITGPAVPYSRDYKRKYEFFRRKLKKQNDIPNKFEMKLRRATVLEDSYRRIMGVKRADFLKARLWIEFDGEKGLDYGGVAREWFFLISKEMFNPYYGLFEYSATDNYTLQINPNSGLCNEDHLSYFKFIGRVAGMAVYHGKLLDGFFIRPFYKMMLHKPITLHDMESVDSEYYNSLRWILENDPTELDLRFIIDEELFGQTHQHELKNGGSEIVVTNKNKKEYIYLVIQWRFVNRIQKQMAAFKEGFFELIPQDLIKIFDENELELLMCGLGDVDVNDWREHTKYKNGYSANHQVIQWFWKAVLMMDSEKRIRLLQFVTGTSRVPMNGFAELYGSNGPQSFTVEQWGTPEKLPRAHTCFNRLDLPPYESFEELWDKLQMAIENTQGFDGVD

How did the binding turn out when “NEDD4 (from UniProt P46934 1-1319) (enzyme)” was run?
Its binding is “binds”.
